Record: PubChem BioAssay AID1259424 (University of Nebraska Medical Center, 2018)
The deposit covers about 14,000 reagents; shown is an unselected part. 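Higher correlation or smaller distance means closer resemblance to KSR1 loss; control wells, including KSR1 knockdowns, recur on many plates.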 The record does not give: the time to read-out.

Screen: 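Find knockdowns that reproduce the expression shifts seen after KSR1 loss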 (primary screen)
Cell system: human HCT116 colon cancer cells
Reagent: siRNA pool against human genes, 50 nM
Measurement: 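Six signature mRNAs by branched-DNA multiplex assay, scaled to two housekeeping genes and non-targeting median, log2; matched to mean KSR1 knockdown profile by Pearson correlation and euclidean distance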
Direction: mean correlation with KSR1 profile and KSR1 correlation: higher = expression change more like KSR1 knockdown; mean distance from KSR1 profile: higher = expression change less like KSR1 knockdown

target gene | PubChem SID | mean correlation with KSR1 profile | mean distance from KSR1 profile | KSR1 correlation, replicate 1 | KSR1 correlation, replicate 2 | KSR1 correlation, replicate 3
NCBP1 (nuclear cap binding protein subunit 1) | SID363993659 | 0.738 | 0.873 | 0.388 | 0.425 | 0.743
MYO18B (myosin XVIIIB) | SID364004095 | 0.432 | 2.74 | 0.127 | 0.525 | 0.315
ACADS (acyl-CoA dehydrogenase short chain) | SID363991356 | -0.267 | 2.73 | -0.352 | 0.0316 | -0.109
IL2RA (interleukin 2 receptor subunit alpha) | SID363991748 | -0.0359 | 1.19 | 0.212 | -0.186 | -0.0651
SLC25A14 | SID363995006 | -0.469 | 2.23 | -0.287 | -0.573 | -0.176
ASMTL-AS1 (ASMTL antisense RNA 1) | SID364003244 | 0.142 | 2.39 | 0.228 | -0.0122 | 0.0105
DCAF6 (DDB1 and CUL4 associated factor 6) | SID364001075 | -0.243 | 3.22 | -0.0057 | -0.274 | 0.0169
DHRS3 (dehydrogenase/reductase 3) | SID363995711 | 0.118 | 1.49 | 0.133 | 0.127 | 0.496
SLC18A3 | SID363994203 | -0.689 | 1.49 | -0.619 | -0.8 | -0.262
ZNFX1 (zinc finger NFX1-type containing 1) | SID364001969 | -0.187 | 1.87 | -0.0902 | -0.148 | -0.158
GABRA4 (gamma-aminobutyric acid type A receptor subunit alpha4) | SID363992099 | -0.262 | 2.47 | -0.143 | -0.352 | -0.366
KCNH3 (potassium voltage-gated channel subfamily H member 3) | SID363998201 | 0.299 | 2.26 | 0.521 | 0.148 | 0.0512
B3GALT4 (beta-1,3-galactosyltransferase 4) | SID363994846 | -0.382 | 2.7 | -0.272 | -0.266 | -0.595
MDH2 (malate dehydrogenase 2) | SID363996787 | -0.0571 | 3.37 | -0.0685 | -0.26 | -0.0388
TSPAN13 (tetraspanin 13) | SID363998821 | 0.0929 | 1.83 | 0.192 | -0.269 | -0.208
EIF4EBP3 | SID363994799 | 0.59 | 2.17 | 0.508 | 0.733 | 0.515
GRIK5 (glutamate ionotropic receptor kainate type subunit 5) | SID363993295 | -0.507 | 2.51 | -0.525 | -0.44 | -0.643
LRRN1 (leucine rich repeat neuronal 1) | SID364001879 | -0.45 | 3.3 | -0.34 | -0.37 | -0.365
INTS5 (integrator complex subunit 5) | SID364003380 | 0.112 | 4.91 | -0.0258 | 0.22 | -0.134
GLUD1 (glutamate dehydrogenase 1) | SID363996191 | 0.28 | 1.53 | 0.23 | 0.354 | 0.101
CCDC59 (coiled-coil domain containing 59) | SID363998624 | -0.513 | 2.11 | -0.358 | -0.645 | -0.548
NGLY1 (N-glycanase 1) | SID364000954 | 0.0153 | 1.18 | -0.163 | -0.427 | 0.132
SLC9A3 | SID363995178 | -0.499 | 2.6 | -0.496 | -0.508 | -0.39
ZNF655 (zinc finger protein 655) | SID364002719 | -0.515 | 1.87 | -0.727 | -0.61 | -0.599
BCL6 (BCL6 transcription repressor) | SID363992927 | 0.682 | 1.4 | 0.775 | 0.649 | 0.726
RAB27B (RAB27B, member RAS oncogene family) | SID363995167 | 0.801 | 0.708 | 0.67 | 0.894 | 0.549
ZMIZ1 (zinc finger MIZ-type containing 1) | SID364001611 | -0.209 | 2.5 | -0.203 | -0.153 | -0.312
CNOT2 (CCR4-NOT transcription complex subunit 2) | SID363998917 | 0.0841 | 2.29 | 0.107 | -0.0336 | 0.0254
SEC61G (SEC61 translocon subunit gamma) | SID363998734 | -0.183 | 2.63 | -0.242 | -0.178 | 0.0309
HLA-DPA1 (major histocompatibility complex, class II, DP alpha 1) | SID364004392 | -0.231 | 1.81 | -0.405 | -0.343 | -0.176
CEP164 (centrosomal protein 164) | SID364005511 | -0.309 | 1.39 | -0.345 | 0.115 | -0.803
GNG3 (G protein subunit gamma 3) | SID363998135 | 0.785 | 1.11 | 0.716 | 0.773 | 0.826
MEOX1 (mesenchyme homeobox 1) | SID363995501 | -0.646 | 1.77 | -0.189 | -0.227 | -0.711
BCKDK (branched chain keto acid dehydrogenase kinase) | SID363996753 | -0.0262 | 4.23 | 0.112 | 0.149 | -0.316
PTGIS (prostaglandin I2 synthase) | SID363992245 | 0.376 | 3.39 | 0.378 | 0.412 | 0.315
RP1 (RP1 axonemal microtubule associated) | SID363997091 | -0.163 | 3.33 | -0.18 | -0.254 | -0.0439
SRSF10 (serine and arginine rich splicing factor 10) | SID363997413 | -0.42 | 2.64 | -0.193 | -0.453 | -0.246
MRPL15 (mitochondrial ribosomal protein L15) | SID363998632 | -0.527 | 3.31 | -0.68 | -0.459 | -0.663
LYRM2 (LYR motif containing 2) | SID364001715 | 0.147 | 1.61 | 0.0141 | 0.358 | 0.328
CRACD (capping protein inhibiting regulator of actin dynamics) | SID364005158 | -0.476 | 2.49 | -0.45 | -0.46 | -0.442
GTPBP4 (GTP binding protein 4) | SID363998251 | 0.313 | 2.55 | 0.372 | 0.191 | 0.236
KPNA4 (karyopherin subunit alpha 4) | SID363993466 | -0.0264 | 1.68 | -0.205 | -0.0257 | 0.00605
ANKRD20A1 (ankyrin repeat domain 20 family member A1) | SID364003849 | 0.777 | 1.03 | 0.804 | 0.704 | 0.656
TGS1 (trimethylguanosine synthase 1) | SID364003096 | 0.568 | 1.46 | 0.519 | 0.6 | 0.545
AGPAT3 (1-acylglycerol-3-phosphate O-acyltransferase 3) | SID364001495 | 0.538 | 3.12 | 0.689 | 0.634 | 0.314
PDCD7 (programmed cell death 7) | SID363996593 | -0.391 | 4.19 | -0.227 | -0.457 | -0.468
MAU2 | SID364005207 | -0.868 | 2.92 | -0.867 | -0.86 | -0.817
PLCG2 (phospholipase C gamma 2) | SID363993829 | -0.483 | 1.87 | -0.544 | -0.0907 | -0.177
CAPN11 (calpain 11) | SID363997789 | 0.104 | 1.11 | 0.42 | -0.116 | -0.0374
LTF (lactotransferrin) | SID363993527 | 0.317 | 2.02 | 0.332 | 0.353 | 0.148

Reformatted: entries from further up
target gene	PubChem SID	mean correlation with KSR1 profile	mean distance from KSR1 profile	KSR1 correlation, replicate 1	KSR1 correlation, replicate 2	KSR1 correlation, replicate 3
CCDC59 (coiled-coil domain containing 59)	SID363998624	-0.513	2.11	-0.358	-0.645	-0.548
NGLY1 (N-glycanase 1)	SID364000954	0.0153	1.18	-0.163	-0.427	0.132
SLC9A3	SID363995178	-0.499	2.6	-0.496	-0.508	-0.39
ZNF655 (zinc finger protein 655)	SID364002719	-0.515	1.87	-0.727	-0.61	-0.599
